Data as given in PubChem BioAssay AID1259291 (Sanger Institute, 2017)
The deposit covers 794 reagents; below is a random part of them. Over the whole deposit, 15 (1.9%) got an active call. 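Calls rest on knock-down alone; drug synergy scores do not affect them; drugs added a day post-transfection, DMSO vehicle as comparison.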 Not all columns of the deposit are shown. Reagent sequences are not shown. The record does not give: the amount of reagent, the time to read-out.

Purpose: 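Genes needed for HT29 colorectal cancer cell survival or for sensitivity to drugs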 (primary screen)
System: HT29 human colorectal cancer cells
Reagent: siRNA pool against human genes
Challenge: anchor drugs added a day after transfection: BYL719 at 1 µM, cetuximab at 5 µg/ml or trametinib at 10 nM, or DMSO vehicle alone
Read-out: 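Replicate-averaged viability relative to non-targeting pool, robust z-score based on control wells, plus per-drug synergy score for 1 µM BYL719, 5 µg/ml cetuximab and 10 nM trametinib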
Direction: robust z-score, knock-down alone: higher = more viable cells
Hit rule: 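Essential when the robust z-score for knock-down without any drug is below -3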
Calls: active = essential (knock-down alone); inactive = no change alone

PKN3
- robust z-score, knock-down alone: -0.88
- call: inactive

MAGI1
- robust z-score, knock-down alone: -1.6
- call: inactive

ACO1
- robust z-score, knock-down alone: -0.0889
- call: inactive

TNK1
- robust z-score, knock-down alone: 0.113
- call: inactive

CDK6
- robust z-score, knock-down alone: 0.552
- call: inactive

ETNK2
- robust z-score, knock-down alone: 0.552
- call: inactive

NLK
- robust z-score, knock-down alone: 0.552
- call: inactive

MAPK7
- robust z-score, knock-down alone: 0.552
- call: inactive

EPHB1
- robust z-score, knock-down alone: 0.552
- call: inactive

PCK2
- robust z-score, knock-down alone: 0.197
- call: inactive

PANK4
- robust z-score, knock-down alone: 0.552
- call: inactive

Part of the list above, reformatted:
TNK1: robust z-score, knock-down alone = 0.113; call = inactive
CDK6: robust z-score, knock-down alone = 0.552; call = inactive

Continued:
HIPK3
- robust z-score, knock-down alone: 0.552
- call: inactive

IKBKE
- robust z-score, knock-down alone: -0.552
- call: inactive

STAG2
- robust z-score, knock-down alone: 0.143
- call: inactive

NUP98
- robust z-score, knock-down alone: -2.27
- call: inactive

MPP2
- robust z-score, knock-down alone: 0.552
- call: inactive

TGFBR2
- robust z-score, knock-down alone: -0.173
- call: inactive

MAP3K20
- robust z-score, knock-down alone: -1.47
- call: inactive

PRKCA
- robust z-score, knock-down alone: 0.552
- call: inactive

PDIK1L
- robust z-score, knock-down alone: -0.295
- call: inactive

LIMK1
- robust z-score, knock-down alone: -1.13
- call: inactive

PTGS1
- robust z-score, knock-down alone: -0.543
- call: inactive

PMVK
- robust z-score, knock-down alone: 0.0274
- call: inactive

DGKQ
- robust z-score, knock-down alone: 0.105
- call: inactive

VRK3
- robust z-score, knock-down alone: -0.0244
- call: inactive

EIF2AK1
- robust z-score, knock-down alone: 0.552
- call: inactive

BRDT
- robust z-score, knock-down alone: 0.552
- call: inactive

CAMKK1
- robust z-score, knock-down alone: 0.552
- call: inactive
